From PubChem BioAssay record AID1159506 (NCATS, 2015).

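Luminescence from an EWS-FLI1 target-promoter (NR0B1) reporter, set against a CMV-promoter reporter, two days after silencing single genes in TC32 Ewing sarcoma cells. Each siRNA was applied at 20 nM. A z-score of the log NR0B1-over-CMV signal, less the median of siRNAs with the same seed; more negative means a stronger specific loss of the NR0B1 reporter.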

The strongest results of the screen are mostly left out here. Sequences are the guide (antisense) strand, without overhang.

| # | Sequence | gene | seed-corrected z-score |
|---|---|---|---|
| 1 | `UGAGUGAUGAUGUUCAUGA` | SLC35B4 | 0.5006 |
| 2 | `UGAUUUUUGAGUCUGAGGG` | LOC728470 | 0.5236 |
| 3 | `UUCGAGCAAACUUCAGCUG` | RPL15P11 | -0.6279 |
| 4 | `ACAGGGUUCAGUGAGCUGU` | ADRA2B | -0.5398 |
| 5 | `UUGCUUGCUAGAGUCAUUC` | PTAR1 | -0.3487 |
| 6 | `UGCGGUAAUCGUGAAGAUC` | ZC2HC1A | -0.04408 |
| 7 | `UUAUAUCUACCUGACAAGC` | PCGF6 | 0.7077 |
| 8 | `UAGGAACUGAUGGGAGUCC` | MFSD4A | 0.03767 |
| 9 | `UUAUGGAGACCUUGUACUU` | CNTFR | 0.05484 |
| 10 | `UGCUGAACUUGCUAACUCG` | CTRL | -0.2766 |
| 11 | `UCUUGCACAAAAAGAGUCU` | OR8G2 | 0.2067 |
| 12 | `UGAUAGGCUUGGUGGAUGC` | PROM2 | -0.09364 |
| 13 | `UAUUCGAAUAUUAAGAGCC` | GPR22 | -1.093 |
| 14 | `UAGGGUUUGAAUUUCUACA` | LYRM4 | 0.6551 |
| 15 | `UCCUUUCUGCUCAUCAUGC` | HR | 0.357 |
| 16 | `UGCAUAACAACAACGAUUC` | RASA1 | -0.06141 |
| 17 | `UUCUCGUUGAGCAUGAGCC` | PTGES2 | -0.3001 |
| 18 | `UUAGCAUAGCCUGAGGUGG` | SP7 | -0.6252 |
| 19 | `UCUGCUCACAAGACGCACG` | HLA-DQB1 | 0.9156 |
| 20 | `UAUAUUGAGACAUGAUUUC` | PPP1R3C | 0.07183 |
| 21 | `AAUAGUUCAAAGAAAUCCG` | TCERG1 | -1.479 |
| 22 | `ACAGUUACGAUGGAACUCA` | RNF43 | 1.203 |
| 23 | `UUUACGAACUUCACGAACC` | UTP3 | 0.368 |
| 24 | `AAUCUGACCACCAUGAGUC` | SPATA41 | -0.7357 |
| 25 | `UCUGGUAAUUUUGAACUUC` | LOC401123 | -0.4626 |
| 26 | `AUUCUAUGAUCUUUCGUUC` | ITSN1 | -0.2339 |
| 27 | `ACCUUGAUGCGCUCAAUCC` | GNG7 | -0.09599 |
| 28 | `AGCUUAGCUACUGUCAGCC` | RAPGEF4 | -0.07305 |
| 29 | `UUAUUAUUGCGUAUAGCUC` | HAND2-AS1 | 1.025 |
| 30 | `UUAAGUUCCUUAUUGCACC` | CCDC28A | 0.4586 |
| 31 | `AUGUGAUCAAUAAACUUGU` | OR2F2 | 0.383 |
| 32 | `UCAUGUUGAAUGGUGAUUA` | OR56B4 | -1.565 |
| 33 | `AAAGGGACUGCGUUCAAUG` | FLNC | -0.9042 |
| 34 | `ACUCGCAUAAUUUACAAUG` | ZFR | 0.08363 |
| 35 | `UCUGCUACAAGGAUUUGGG` | C9orf64 | -0.2014 |
| 36 | `UCUCCUAUAUGUCUUCUCU` | ZNF33A | -0.6769 |
| 37 | `UAUCGUUGAGCAAUAAGAG` | KIF5C | -0.05473 |
| 38 | `UGUAGGUUCAGGUAGGGAU` | RAVER1 | -0.3103 |
| 39 | `AGCUGGGUAAGUUAGUUCC` | SLC25A22 | -0.01563 |
| 40 | `AGUUUUACAAACAUUAGCC` | RNASEH2B | -0.07529 |
| 41 | `UUCCGAAUCUGUUCAAACU` | KCNJ15 | -0.5319 |
| 42 | `UGAAAGACCAGUGUCACUU` | HOGA1 | -0.1575 |
| 43 | `AUAACUUCCUCGUUCUUUU` | CACNG2 | 0.0126 |
| 44 | `AAUAGAUUCUUAUCAGUGC` | ABHD6 | -0.5497 |
| 45 | `ACAGUUCCAAUGGAUAAGC` | NEK9 | -0.8129 |
| 46 | `UCCCUGUCAAAGUAGAACU` | KCNF1 | 5.933 |
| 47 | `UGCCGGUUGAGAUCUUGCC` | TRPV6 | -0.2748 |
| 48 | `UGAGGAGACACCACGCUGU` | PMM1 | -0.7773 |
| 49 | `UACCGUAAACAAAACUUCC` | DYNC1LI1 | 0.9321 |
| 50 | `UAAAUGGUGCGGGUGAUGU` | P2RY4 | -0.7729 |
| 51 | `AAAGUUGCAUGGAUUAGGG` | OR2G3 | -1.777 |
| 52 | `UGUUGCACAGGAAUGUUCC` | MTMR3 | 0.7727 |
| 53 | `UCUCCUCGUAUAUAAGGCC` | HIST1H4L | -0.3299 |
| 54 | `UUCGAUGAGAUGUCAUUUC` | CCDC171 | 0.1974 |
| 55 | `UUUGUUGCAAAUGCUCCGC` | NR6A1 | 0.5139 |
| 56 | `UAUACUUACAGGCUAGAGC` | PDHA1 | -0.8578 |
| 57 | `AUAGCGGUCAAUGAGUUCC` | PLCD4 | 0.5539 |
| 58 | `UCAGGUCUUCCCGGUAUCG` | PSMB6 | 0.1789 |
| 59 | `UUUCUAGGGACACCAAUUC` | OSTN | -0.3864 |
| 60 | `UCUCAUAUUUCUGUUGUUC` | EMC2 | 1.866 |
| 61 | `AUACUUCACAAGGUCAGCC` | GP2 | 1.439 |
| 62 | `ACUUGAAGCUGAUUAUUUC` | FEZ1 | 0.755 |
| 63 | `UUUCAGUUCAUUCCAGGCC` | MUSK | 0.1566 |
| 64 | `UUCUUUAACAGGACCAGUC` | GATAD2B | 0.03003 |
| 65 | `UUUAGUUUCAUGGUCUCUG` | GORAB | 1.343 |
| 66 | `UAAGAAGCCACCGAUCAGG` | IL27 | 0.4547 |
| 67 | `UUUUCGGUAGGUCUCGUCC` | LSM11 | -0.4236 |
| 68 | `AUACGAGAAAGUGUUCGUC` | SLC26A4 | -0.314 |
| 69 | `AAUAGCUAUAGGAUCAGGG` | ART4 | -0.8303 |
| 70 | `UGUUUUCCAGGUGCCCUCG` | RPLP0 | -1.432 |
| 71 | `UUAUAGCCUCGAGAUACGC` | KIAA0196 | 0.6789 |